{"source": "patent US20250327791A1", "about": "“METHODS OF TREATMENT BASED ON PATIENT SPECIFIC CLINICAL TRIAL MODELS AND ASSOCIATED MODELS AND USES” (DUKE UNIVERSITY, priority 2017, published 2025)", "key": {"CRC119 PDX": {"tested_on": "CRC119 PDX", "assay": "PDX model, ponatinib treatment, tumor volume", "format": "in vivo, mice", "conditions": "30 mg/kg oral five times a week"}, "p-ERK": {"tested_on": "p-ERK", "assay": "Western blot pre and post ponatinib treatment", "format": "cell-based, human", "conditions": "post ponatinib treatment"}, "p-AKT": {"tested_on": "p-AKT", "assay": "Western blot pre and post ponatinib treatment", "format": "cell-based, human", "conditions": "post ponatinib treatment"}, "STAT": {"tested_on": "STAT", "assay": "Western blot pre and post ponatinib treatment", "format": "cell-based, human", "conditions": "post ponatinib treatment"}, "CRC 240 PDX": {"tested_on": "CRC 240 PDX", "assay": "PDX model, ponatinib treatment, tumor volume", "format": "in vivo, mice", "conditions": "CRC240 PDX; 30 mg/kg oral five times a week"}, "phosphorylated FGFR": {"tested_on": "phosphorylated FGFR", "assay": "Western blot pre and post ponatinib treatment", "format": "cell-based, human", "conditions": "post ponatinib treatment"}, "CRC057 PDX": {"tested_on": "CRC057 PDX", "assay": "PDX model, ponatinib treatment, tumor volume", "format": "in vivo, mice", "conditions": "30 mg/kg oral five times a week"}}, "note": "At least one compound was matched to its structure with a doubt left.", "data": [{"smiles": "Cc1ccc(C(=O)Nc2ccc(CN3CCN(C)CC3)c(C(F)(F)F)c2)cc1C#Cc1cnc2cccnn12", "note": "[ponatinib]", "values": [{"measurement": "PDX sensitivity", "setting": "CRC119 PDX", "result": "sensitive"}, {"measurement": "p-ERK expression (western blot)", "setting": "p-ERK; CRC057", "result": "increased"}, {"measurement": "p-ERK expression (western blot)", "setting": "p-ERK; CRC240", "result": "increased"}, {"measurement": "p-AKT expression (western blot)", "setting": "p-AKT; CRC057", "result": "increase"}, {"measurement": "p-AKT expression (western blot)", "setting": "p-AKT; CRC119", "result": "increase"}, {"measurement": "p-AKT expression (western blot)", "setting": "p-AKT; CRC240", "result": "increase"}, {"measurement": "STAT expression (western blot)", "setting": "STAT; CRC057", "result": "decrease"}, {"measurement": "STAT expression (western blot)", "setting": "STAT; CRC119", "result": "decrease"}, {"measurement": "STAT expression (western blot)", "setting": "STAT; CRC240", "result": "decrease"}, {"measurement": "PDX sensitivity", "setting": "CRC 240 PDX", "result": "sensitive"}, {"measurement": "phosphorylated FGFR (western blot)", "setting": "phosphorylated FGFR; CRC119", "result": "inhibited"}, {"measurement": "phosphorylated FGFR (western blot)", "setting": "phosphorylated FGFR; CRC240", "result": "inhibited"}, {"measurement": "PDX sensitivity", "setting": "CRC057 PDX", "result": "sensitive"}]}]}
